Laboratory results reported in publication doi:10.1101/2020.12.07.413385.
Where two headings read alike, the source gives them in different places. Results are given in words; binding and its absence hold for the method and conditions named. For some of these results: In cells and extracts the contact can be indirect. Some binding calls cover weakened binding; strength is not graded here.

Chains of the proteins cited; added tags and fusions are not shown.
UniProt Q9BVS4: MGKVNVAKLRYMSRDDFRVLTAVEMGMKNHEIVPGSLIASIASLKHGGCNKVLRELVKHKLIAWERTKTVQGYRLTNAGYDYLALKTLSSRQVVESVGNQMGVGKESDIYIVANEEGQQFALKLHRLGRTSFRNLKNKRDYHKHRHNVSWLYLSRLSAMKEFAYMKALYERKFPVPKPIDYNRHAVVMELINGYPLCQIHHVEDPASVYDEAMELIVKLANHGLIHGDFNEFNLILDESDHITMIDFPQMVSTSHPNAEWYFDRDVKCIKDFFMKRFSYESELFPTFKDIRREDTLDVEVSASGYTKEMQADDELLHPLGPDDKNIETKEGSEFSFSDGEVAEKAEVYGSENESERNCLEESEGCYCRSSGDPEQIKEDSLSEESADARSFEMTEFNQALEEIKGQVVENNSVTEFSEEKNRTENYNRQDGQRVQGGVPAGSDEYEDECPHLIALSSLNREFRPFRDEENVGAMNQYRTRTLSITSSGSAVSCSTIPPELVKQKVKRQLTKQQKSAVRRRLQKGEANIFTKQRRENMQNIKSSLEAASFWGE
UniProt O00425: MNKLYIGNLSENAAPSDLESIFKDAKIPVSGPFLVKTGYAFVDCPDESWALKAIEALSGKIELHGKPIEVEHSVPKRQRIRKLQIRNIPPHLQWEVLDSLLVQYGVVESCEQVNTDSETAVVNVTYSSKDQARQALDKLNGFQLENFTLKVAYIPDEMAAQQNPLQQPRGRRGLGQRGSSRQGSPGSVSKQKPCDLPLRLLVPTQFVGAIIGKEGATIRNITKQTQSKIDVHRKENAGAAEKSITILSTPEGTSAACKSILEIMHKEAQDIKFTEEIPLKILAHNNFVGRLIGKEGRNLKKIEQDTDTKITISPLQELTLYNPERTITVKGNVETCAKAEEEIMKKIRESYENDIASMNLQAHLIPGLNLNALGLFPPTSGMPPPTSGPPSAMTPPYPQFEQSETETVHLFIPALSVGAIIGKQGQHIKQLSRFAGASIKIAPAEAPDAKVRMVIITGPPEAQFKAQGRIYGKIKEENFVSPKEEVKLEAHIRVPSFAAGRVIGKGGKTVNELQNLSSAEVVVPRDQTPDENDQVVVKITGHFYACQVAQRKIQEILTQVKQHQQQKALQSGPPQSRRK
UniProt Q99700: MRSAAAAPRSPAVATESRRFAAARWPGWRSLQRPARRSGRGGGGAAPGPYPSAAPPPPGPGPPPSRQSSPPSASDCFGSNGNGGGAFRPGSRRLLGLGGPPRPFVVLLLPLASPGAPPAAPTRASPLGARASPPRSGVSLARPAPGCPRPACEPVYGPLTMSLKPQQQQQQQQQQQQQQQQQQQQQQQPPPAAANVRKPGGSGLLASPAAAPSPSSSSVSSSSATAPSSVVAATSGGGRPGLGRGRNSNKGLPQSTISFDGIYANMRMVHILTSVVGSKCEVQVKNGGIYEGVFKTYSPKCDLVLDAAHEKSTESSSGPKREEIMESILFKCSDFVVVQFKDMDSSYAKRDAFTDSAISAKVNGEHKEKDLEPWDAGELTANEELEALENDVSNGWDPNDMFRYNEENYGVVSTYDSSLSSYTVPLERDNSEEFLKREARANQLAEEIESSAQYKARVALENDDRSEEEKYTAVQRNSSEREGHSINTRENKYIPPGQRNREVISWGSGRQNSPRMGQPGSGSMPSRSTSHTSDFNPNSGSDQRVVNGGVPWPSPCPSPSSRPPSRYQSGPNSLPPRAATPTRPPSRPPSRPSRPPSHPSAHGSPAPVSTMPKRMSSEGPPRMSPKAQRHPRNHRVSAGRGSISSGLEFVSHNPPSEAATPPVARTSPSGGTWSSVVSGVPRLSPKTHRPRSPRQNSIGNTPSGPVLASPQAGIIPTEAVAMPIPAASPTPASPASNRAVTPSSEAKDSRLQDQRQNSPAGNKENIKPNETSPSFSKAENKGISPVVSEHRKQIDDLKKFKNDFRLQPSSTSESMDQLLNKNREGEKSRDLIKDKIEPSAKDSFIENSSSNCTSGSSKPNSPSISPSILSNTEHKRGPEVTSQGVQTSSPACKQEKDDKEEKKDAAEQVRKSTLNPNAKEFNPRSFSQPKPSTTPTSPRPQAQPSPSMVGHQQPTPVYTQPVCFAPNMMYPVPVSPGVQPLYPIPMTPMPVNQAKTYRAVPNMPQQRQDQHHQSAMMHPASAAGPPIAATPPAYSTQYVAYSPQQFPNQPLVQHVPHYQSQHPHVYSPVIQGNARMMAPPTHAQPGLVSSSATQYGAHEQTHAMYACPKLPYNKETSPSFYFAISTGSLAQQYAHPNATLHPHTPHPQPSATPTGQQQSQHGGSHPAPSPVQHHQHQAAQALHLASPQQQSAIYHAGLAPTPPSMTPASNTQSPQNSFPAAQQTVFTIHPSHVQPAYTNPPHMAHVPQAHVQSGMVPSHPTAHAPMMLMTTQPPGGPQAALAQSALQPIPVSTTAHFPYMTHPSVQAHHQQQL

Legend:
[1] = target: RIOK2 (right open reading frame kinase 2), endogenous (human (endogenous in U87MG-EGFRvIII, GBM301, GBM39, hNPCs)) (UniProt Q9BVS4); assay: cross-linking + co-IP
[2] = target: IMP3 (IGF2BP3), endogenous (human (endogenous in U87MG, U87MG-EGFRvIII, GBM301, GBM39, hNPCs)) (UniProt O00425); assay: co-IP
[3] = target: recombinant RIOK2 protein (Origene, cat#TP602270) (UniProt Q9BVS4); assay: co-IP
[4] = target: FLAG-tagged wild-type RIOK2 (RIOK2^WT-FLAG) (human) (UniProt Q9BVS4); assay: co-IP
[5] = target: RIOK2 (right open reading frame kinase 2), endogenous (human (endogenous in U87MG-EGFRvIII, GBM301, GBM39, hNPCs)) (UniProt Q9BVS4); assay: co-IP
[6] = target: IMP3 (IGF2BP3), endogenous (human (endogenous in U87MG, U87MG-EGFRvIII, GBM301, GBM39, hNPCs)) (UniProt O00425); assay: co-IP; remark: listed apart in the source

For ATXN2 (from UniProt Q99700 1-1313), the binding [1] was “binds”.

For “RIOK2 (right open reading frame kinase 2), endogenous (from UniProt Q9BVS4 1-552)”, the binding [2] was “binds”.

In the case of “recombinant IMP3 protein (Origene, cat#TP760798) (from UniProt O00425 1-579)”, the binding [3] is reported as “binds”.

“IMP3 (IGF2BP3), endogenous (from UniProt O00425 1-579)” was tested, and the binding [1] was “binds”, the binding [4] was “binds” and the binding [5] was “binds”.

B1: NOB1 (protein, UniProt Q9ULX3 1-412)
chain: MAPVEHVVADAGAFLRHAALQDIGKNIYTIREVVTEIRDKATRRRLAVLPYELRFKEPLPEYVRLVTEFSKKTGDYPSLSATDIQVLALTYQLEAEFVGVSHLKQEPQKVKVSSSIQHPETPLHISGFHLPYKPKPPQETEKGHSACEPENLEFSSFMFWRNPLPNIDHELQELLIDRGEDVPSEEEEEEENGFEDRKDDSDDDGGGWITPSNIKQIQQELEQCDVPEDVRVGCLTTDFAMQNVLLQMGLHVLAVNGMLIREARSYILRCHGCFKTTSDMSRVFCSHCGNKTLKKVSVTVSDDGTLHMHFSRNPKVLNPRGLRYSLPTPKGGKYAINPHLTEDQRFPQLRLSQKARQKTNVFAPDYIAGVSPFVENDISSRSATLQVRDSTLGAGRRRLNPNASRKKFVKKR
In the case of B1, the binding [6] is reported as “no binding”.
